Test results from article PMC6065180, “An allosteric propofol-binding site in kinesin disrupts kinesin-mediated processive movement on microtubules” (The Journal of Biological Chemistry, 2018).
These are yes or no findings as the source states them, for the method shown. Some binding calls cover weakened binding; strength is not graded here.

Chains of the proteins cited; added tags and fusions are not shown. Lines headed by an entry give the natural chain unless they say otherwise; changes in a name come on top.
UniProt P81948: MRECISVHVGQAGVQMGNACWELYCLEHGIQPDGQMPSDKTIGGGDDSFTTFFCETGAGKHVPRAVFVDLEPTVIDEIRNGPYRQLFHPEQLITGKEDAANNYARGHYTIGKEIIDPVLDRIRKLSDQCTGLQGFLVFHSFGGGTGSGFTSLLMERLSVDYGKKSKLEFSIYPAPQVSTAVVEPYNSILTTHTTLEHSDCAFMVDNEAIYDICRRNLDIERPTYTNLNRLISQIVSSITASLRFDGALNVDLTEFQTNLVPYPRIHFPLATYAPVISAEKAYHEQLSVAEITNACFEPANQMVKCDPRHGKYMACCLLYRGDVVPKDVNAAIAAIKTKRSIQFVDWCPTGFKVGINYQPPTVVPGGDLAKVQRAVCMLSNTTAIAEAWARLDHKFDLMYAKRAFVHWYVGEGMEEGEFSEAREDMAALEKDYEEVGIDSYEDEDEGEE
UniProt Q3MHM5: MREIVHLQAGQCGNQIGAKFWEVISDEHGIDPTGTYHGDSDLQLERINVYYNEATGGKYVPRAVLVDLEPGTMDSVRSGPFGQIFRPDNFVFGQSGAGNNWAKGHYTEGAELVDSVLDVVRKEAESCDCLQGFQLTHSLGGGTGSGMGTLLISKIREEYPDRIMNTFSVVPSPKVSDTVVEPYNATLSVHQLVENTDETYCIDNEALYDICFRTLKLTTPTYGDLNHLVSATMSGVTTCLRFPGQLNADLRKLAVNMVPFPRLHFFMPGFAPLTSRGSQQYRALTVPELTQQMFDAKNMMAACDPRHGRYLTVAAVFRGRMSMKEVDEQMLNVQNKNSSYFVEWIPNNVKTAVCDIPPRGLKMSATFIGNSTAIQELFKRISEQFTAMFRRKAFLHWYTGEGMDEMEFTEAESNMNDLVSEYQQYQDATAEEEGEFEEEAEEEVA
UniProt P28741: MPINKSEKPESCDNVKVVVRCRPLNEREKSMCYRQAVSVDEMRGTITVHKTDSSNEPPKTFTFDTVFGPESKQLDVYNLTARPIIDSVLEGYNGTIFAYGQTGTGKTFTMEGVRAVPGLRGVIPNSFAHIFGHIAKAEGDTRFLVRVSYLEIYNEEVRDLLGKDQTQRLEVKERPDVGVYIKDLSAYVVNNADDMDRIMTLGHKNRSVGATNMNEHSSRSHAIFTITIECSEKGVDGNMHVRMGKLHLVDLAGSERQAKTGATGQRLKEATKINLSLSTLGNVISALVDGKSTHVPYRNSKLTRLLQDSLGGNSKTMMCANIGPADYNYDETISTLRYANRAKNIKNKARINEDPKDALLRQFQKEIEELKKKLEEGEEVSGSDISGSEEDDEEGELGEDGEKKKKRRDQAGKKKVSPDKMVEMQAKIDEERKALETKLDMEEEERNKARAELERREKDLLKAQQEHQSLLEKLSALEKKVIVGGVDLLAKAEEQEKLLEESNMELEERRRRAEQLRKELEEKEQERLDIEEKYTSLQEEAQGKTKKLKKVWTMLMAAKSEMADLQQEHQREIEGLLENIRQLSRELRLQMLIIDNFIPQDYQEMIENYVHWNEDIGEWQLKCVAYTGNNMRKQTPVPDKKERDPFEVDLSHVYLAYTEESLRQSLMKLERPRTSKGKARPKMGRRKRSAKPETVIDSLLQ

Target: microtubules from purified bovine brain tubulin (Taxol-stabilized) (bovine) (UniProt P81948+Q3MHM5)
Experiment: photoaffinity radiolabelling of preformed microtubule–kinesin complexes; 10 μM tubulin (microtubules) + 5 μM kinesin dimer, with or without 1 mM Mg-AMPPNP, ATPase buffer (20 mM HEPES pH 7.2) with 40 μM paclitaxel, 10 μM [3H]AziPm ± 400 μM propofol; UV 350 nm, SDS-PAGE, scintillation counting of the bands; both purified

binding | Substance
binds | heterodimeric kinesin-2 KIF3AC (mouse KIF3A-EB1 with KIF3C-EB1) (from UniProt P28741 1-374; O35066 1-396) (complex)
binds | heterodimeric kinesin-2 KIF3AB (mouse KIF3A-AHD with KIF3B-BHD) (from UniProt P28741 1-376; Q61771 1-371) (complex)
